Reference: PMC10766952
These are yes or no findings as the source states them, for the method shown. In cells and extracts the contact can be indirect. Some entries that bind do so weakly or less than the wild type.

Protein sequences, listed by entry. Tags and fused reporters are not part of them.
UniProt Q4JK59: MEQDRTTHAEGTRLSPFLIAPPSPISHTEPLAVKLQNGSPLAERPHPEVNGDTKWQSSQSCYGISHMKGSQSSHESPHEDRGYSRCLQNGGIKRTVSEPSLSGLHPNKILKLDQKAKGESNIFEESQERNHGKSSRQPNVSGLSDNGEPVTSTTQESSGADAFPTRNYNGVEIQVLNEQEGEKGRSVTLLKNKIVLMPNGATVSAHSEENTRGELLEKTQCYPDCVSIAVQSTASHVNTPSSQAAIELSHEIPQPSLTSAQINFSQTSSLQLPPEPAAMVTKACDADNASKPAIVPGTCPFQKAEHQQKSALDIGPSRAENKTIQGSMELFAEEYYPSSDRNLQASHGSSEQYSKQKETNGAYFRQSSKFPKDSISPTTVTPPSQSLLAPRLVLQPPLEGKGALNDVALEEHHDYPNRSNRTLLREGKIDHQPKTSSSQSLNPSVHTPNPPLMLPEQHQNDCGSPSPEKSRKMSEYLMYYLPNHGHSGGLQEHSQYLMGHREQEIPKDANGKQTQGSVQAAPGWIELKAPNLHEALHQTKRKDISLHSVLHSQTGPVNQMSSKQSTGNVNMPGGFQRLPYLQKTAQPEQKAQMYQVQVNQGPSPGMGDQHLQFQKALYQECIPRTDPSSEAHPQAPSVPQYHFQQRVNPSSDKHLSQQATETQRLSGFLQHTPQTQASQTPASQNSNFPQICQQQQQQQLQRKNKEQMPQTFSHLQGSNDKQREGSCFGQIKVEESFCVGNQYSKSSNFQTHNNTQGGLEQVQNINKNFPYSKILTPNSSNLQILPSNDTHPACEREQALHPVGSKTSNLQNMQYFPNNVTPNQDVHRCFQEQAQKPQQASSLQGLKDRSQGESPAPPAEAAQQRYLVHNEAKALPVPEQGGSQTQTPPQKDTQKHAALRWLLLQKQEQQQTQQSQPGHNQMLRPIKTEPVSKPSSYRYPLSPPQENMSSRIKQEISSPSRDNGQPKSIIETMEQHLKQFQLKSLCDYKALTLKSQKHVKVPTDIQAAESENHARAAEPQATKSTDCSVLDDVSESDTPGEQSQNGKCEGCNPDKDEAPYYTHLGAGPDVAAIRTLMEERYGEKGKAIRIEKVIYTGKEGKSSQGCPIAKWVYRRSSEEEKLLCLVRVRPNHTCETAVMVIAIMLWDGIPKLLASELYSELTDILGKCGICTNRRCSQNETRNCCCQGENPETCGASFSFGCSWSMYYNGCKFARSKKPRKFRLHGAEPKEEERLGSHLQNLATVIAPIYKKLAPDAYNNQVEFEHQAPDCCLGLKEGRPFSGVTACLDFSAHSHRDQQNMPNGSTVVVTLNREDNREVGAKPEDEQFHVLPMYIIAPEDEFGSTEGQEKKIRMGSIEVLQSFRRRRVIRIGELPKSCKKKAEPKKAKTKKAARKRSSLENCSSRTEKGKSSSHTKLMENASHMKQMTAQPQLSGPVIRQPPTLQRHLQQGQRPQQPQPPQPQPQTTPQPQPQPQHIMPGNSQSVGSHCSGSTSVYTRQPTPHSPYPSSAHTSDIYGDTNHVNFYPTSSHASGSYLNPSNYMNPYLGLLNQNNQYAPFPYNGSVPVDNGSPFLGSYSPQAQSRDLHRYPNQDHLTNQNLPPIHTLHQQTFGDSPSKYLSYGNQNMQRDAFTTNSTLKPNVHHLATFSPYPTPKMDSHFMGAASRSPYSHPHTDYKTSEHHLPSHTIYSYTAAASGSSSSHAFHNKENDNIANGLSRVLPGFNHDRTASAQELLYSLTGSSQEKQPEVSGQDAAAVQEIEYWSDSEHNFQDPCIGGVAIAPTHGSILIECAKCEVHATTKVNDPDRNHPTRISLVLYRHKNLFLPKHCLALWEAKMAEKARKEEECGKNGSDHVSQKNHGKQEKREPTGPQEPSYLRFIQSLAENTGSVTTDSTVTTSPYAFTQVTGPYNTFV
UniProt P42230: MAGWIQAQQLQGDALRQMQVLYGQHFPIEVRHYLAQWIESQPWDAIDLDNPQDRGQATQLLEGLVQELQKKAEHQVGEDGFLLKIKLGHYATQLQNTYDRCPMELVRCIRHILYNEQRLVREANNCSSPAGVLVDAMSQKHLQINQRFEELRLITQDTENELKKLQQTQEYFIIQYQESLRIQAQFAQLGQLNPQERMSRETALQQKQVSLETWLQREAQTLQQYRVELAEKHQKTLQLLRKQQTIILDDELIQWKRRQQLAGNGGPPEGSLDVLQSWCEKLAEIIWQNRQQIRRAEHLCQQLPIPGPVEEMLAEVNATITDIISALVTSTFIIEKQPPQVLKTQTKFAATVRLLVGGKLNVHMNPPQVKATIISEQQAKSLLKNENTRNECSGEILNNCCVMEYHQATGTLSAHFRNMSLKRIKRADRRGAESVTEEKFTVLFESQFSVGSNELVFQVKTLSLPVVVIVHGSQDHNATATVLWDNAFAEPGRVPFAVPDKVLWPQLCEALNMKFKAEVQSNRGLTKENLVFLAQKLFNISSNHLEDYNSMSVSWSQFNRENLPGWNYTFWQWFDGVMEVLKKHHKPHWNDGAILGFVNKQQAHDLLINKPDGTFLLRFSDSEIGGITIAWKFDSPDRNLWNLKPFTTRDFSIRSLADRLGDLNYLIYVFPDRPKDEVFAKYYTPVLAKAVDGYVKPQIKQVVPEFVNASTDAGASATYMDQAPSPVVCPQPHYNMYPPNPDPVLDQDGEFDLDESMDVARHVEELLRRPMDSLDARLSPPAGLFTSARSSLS

Target: Tet2 (ten-eleven translocation-2 methylcytosine dioxygenase) (UniProt Q4JK59)
Experiment: co-IP; lysates (500 ug protein) of Hepa1-6 cells with Tet2 overexpression, with or without IL-2 stimulation; 2 ug anti-Tet2 overnight at 4 °C, protein G magnetic beads 2 h at 4 °C, three washes with lysis buffer, immunoblot for p-Stat5a

“activated Stat5a (p-Stat5a) (from UniProt P42230 1-793)” was tested, and the binding was “binds”.
